The subject of experiment [1] is Male Sprague-Dawley rats. The experiment can be described thus: Rat tail-flick test, antinociceptive effects after intrathecal administration. Particulars: antinociceptive potency relative to intrathecal morphine (=1). The format is in vivo. The protocol:
Male Sprague-Dawley rats (300-350 g) were used.
Under light halothane anesthesia a needle connected to a Hamilton syringe was inserted percutaneously between spinal processes of the third and fourth lumbar vertebrae into the intrathecal space. A quick flick of the tail was observed when the tip of the needle entered the intrathecal space and was used as an indicator of successful puncture (Mestre et al., 1994). Drugs were delivered in a volume of 5 μl.
Intrathecal catheterization was performed at least two days prior to the experiment as previously described (Shimoyama et al., 1996). […]
To assess the antinociceptive effects of the opioids, the tail-flick test was used. […] The time from the onset of the heat to the withdrawal of the tail (tail-flick latency) was measured. […] Subsequent response latencies were determined at designated time points. […]
Cumulative dose-response studies were performed for each drug using the tail-flick test (Shimoyama et al., 1996), (Shimoyama et al., 1997). […] The response latency after each dosing was determined at peak analgesia, which was 15, 30 and 45 min after the administration of the MOR, DALDA and [Dmt^1]DALDA, respectively (based on preliminary studies). […] The percentage of analgesic responders in the group of rats for each cumulative dose was calculated, and a cumulative dose-response curve was constructed. […]
For orientation: In hot-plate and tail-flick tests a longer latency is read as antinociception.

In experiment [2] the test system is [^3H]NE uptake in spinal cord synaptosomes. Briefly: Inhibition of [3H]NE uptake in spinal cord synaptosomes. The format is biochemical, guinea pig. Particulars: 95% confidence interval in brackets. The protocol:
Adult female Hartley strain guinea pigs (440-550 g) were decapitated and the spinal cords taken out. A crude synaptosomal (P2) fraction was prepared as described previously (Lonart and Johnson 1995; Li 2000). Briefly, the tissue was minced and homogenized in 10 ml of ice-cold 0.32 M sucrose solution (pH7.4) with a Thomas B075 homogenizor, clearance 0.13-0.18 mm. The homogenate was centrifuged for 10 min at 1,200×g in a Megafuge centrifuge at 4° C. The resulting supernatant was then centrifuged at 20,000×g for 20 min in JA-17 rotor of a Beckman J2-21 centrifuge at 4° C. and the supernatant discarded. The pellet (P2) was gently resuspended in aerated (100% O2) ice-cold buffer containing (in mM):HEPES 20, NaCl 140, KCl 5, NaHCO3 5, MgCl2 1, Na2HPO4 1.2, CaCl2 1.2 and glucose 10, pH 7.4, and centrifuge at 3,000×g for 12 min in a Megafuge at 4° C. Pour out the supernatant. […] Protein concentration was determined by the method of Bradford (1976) at 595 nm using bovine serum albumin as a standard in a Spectra Max plus machine (Molecular Device Co. Sunnyvale, Calif.)
Add buffer 0.6 ml in tubes, synaptosome solution 0.2 ml (about 100 μg), then varying concentration of drug 0.1 ml (each concentration performed in triplicate), put in water bath for pre-incubation for 10 min at 37° C. […] Filter-bound radioactivity was counted by liquid scintillation counter (Beckman LS6001). […]

`CN1CC[C@]23c4c5ccc(O)c4O[C@H]2[C@@H](O)C=C[C@H]3[C@H]1C5` [Morphine, morphine, reference compound]: the “Potency Ratios” value in experiment [1] came to 1. The compound also registered an IC50 in experiment [2] of 870 µM.

By IC50 is commonly meant the concentration that gives 50% inhibition.

The record behind these values is patent US7732398B2, “Medicinal uses of mu-opioid receptor agonists” (Cornell Research Foundation, Inc., priority 2000, dated 2010).
